Laboratory results taken from the supplement of paper PMC10849652.
Some of the results follow.

Sequences of proteins named here, by UniProt entry; tags and fusion partners are left off. A change or cut given only in a name is not applied to a line headed by its entry.
UniProt Q9UHC7: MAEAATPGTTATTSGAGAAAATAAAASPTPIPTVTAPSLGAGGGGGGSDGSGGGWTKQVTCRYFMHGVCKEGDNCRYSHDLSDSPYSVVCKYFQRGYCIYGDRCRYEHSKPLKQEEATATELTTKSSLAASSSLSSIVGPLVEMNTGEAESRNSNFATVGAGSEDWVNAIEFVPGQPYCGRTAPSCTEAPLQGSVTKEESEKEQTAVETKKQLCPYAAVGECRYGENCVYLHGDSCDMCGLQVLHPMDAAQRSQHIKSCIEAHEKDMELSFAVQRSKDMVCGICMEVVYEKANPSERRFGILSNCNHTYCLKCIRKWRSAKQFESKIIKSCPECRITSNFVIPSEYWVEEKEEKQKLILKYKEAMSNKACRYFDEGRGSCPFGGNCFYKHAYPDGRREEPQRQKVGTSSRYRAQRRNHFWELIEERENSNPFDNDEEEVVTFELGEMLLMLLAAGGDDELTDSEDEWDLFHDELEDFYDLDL
UniProt O94851, whole entry, looked up: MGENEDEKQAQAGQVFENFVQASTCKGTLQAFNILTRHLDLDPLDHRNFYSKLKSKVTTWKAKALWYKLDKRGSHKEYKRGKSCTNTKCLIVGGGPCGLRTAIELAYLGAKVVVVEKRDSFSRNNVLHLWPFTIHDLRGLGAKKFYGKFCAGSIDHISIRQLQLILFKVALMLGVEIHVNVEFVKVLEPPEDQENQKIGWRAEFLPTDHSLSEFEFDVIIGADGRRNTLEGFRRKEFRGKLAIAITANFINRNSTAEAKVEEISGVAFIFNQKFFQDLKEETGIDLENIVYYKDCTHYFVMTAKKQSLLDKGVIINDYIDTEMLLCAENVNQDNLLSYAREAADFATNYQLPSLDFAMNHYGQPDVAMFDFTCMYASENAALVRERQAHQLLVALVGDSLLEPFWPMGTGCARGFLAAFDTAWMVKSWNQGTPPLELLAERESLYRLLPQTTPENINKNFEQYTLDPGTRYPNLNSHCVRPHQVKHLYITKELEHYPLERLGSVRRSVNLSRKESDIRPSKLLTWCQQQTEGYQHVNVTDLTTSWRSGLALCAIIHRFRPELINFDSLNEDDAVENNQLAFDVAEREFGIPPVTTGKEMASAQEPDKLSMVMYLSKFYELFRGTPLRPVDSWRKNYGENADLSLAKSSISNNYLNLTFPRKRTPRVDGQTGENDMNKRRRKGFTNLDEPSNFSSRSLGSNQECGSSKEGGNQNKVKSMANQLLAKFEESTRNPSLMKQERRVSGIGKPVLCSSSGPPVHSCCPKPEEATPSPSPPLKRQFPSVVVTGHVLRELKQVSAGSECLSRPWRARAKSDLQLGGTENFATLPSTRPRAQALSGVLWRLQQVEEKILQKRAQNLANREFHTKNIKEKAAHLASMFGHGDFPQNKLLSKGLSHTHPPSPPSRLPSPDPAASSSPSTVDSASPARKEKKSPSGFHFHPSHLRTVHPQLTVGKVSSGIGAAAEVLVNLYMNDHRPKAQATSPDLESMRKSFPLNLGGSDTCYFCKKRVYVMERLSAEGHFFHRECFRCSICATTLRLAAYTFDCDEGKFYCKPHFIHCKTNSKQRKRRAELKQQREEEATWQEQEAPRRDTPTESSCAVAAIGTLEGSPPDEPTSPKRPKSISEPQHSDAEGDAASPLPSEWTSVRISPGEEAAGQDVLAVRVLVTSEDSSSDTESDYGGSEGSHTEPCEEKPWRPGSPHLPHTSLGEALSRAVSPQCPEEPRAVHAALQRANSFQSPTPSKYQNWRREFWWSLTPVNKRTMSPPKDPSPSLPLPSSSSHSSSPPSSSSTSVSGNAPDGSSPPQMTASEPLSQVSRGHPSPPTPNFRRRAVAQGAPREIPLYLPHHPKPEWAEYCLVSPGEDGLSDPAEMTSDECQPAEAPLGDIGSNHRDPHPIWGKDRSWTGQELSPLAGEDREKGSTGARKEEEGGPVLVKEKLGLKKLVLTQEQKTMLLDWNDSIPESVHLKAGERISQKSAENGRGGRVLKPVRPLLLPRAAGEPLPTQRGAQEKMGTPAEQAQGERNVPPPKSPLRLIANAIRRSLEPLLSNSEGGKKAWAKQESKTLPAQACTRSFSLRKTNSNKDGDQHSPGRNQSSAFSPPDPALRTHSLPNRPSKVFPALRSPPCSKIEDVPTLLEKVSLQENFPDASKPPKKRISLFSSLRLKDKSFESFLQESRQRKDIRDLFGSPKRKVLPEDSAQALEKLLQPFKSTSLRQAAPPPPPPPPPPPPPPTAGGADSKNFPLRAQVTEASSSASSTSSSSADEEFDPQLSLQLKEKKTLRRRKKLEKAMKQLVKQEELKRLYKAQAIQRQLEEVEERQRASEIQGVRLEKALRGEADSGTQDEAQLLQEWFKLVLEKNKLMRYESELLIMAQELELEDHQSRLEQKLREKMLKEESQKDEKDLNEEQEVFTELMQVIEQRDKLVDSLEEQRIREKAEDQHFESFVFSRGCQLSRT
UniProt Q96BX8: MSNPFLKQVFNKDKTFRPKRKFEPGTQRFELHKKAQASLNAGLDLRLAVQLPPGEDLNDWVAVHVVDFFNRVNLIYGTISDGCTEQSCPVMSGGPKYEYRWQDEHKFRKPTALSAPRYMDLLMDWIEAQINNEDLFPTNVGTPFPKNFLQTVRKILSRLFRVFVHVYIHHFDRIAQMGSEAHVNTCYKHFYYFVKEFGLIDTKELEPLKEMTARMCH
UniProt Q9H3L0: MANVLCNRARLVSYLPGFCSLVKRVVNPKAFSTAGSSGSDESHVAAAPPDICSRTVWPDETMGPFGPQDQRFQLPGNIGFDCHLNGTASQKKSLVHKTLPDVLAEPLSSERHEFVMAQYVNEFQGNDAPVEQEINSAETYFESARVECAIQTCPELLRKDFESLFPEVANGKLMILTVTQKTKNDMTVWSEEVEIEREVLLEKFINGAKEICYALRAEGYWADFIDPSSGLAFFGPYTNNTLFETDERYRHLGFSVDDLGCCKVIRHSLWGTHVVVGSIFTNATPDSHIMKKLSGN
UniProt Q99583: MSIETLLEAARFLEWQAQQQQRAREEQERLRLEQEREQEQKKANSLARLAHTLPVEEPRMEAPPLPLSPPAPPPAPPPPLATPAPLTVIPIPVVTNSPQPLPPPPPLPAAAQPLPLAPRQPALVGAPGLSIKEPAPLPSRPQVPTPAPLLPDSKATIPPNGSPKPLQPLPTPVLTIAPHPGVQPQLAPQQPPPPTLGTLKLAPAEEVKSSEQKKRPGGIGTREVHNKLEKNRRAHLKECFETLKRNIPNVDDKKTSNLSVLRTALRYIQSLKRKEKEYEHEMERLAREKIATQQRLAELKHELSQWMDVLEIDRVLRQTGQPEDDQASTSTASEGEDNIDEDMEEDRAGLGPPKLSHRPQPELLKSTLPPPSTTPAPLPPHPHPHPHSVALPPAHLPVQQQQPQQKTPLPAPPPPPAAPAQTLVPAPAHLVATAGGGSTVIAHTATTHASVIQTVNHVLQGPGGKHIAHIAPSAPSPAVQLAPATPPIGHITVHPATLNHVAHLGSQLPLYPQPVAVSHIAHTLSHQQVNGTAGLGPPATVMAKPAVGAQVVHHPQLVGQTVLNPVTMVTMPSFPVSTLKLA
UniProt Q9Y605: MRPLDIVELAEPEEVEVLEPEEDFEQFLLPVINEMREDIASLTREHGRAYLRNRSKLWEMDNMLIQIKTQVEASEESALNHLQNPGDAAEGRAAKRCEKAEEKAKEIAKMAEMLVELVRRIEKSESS
UniProt Q9Y5U8: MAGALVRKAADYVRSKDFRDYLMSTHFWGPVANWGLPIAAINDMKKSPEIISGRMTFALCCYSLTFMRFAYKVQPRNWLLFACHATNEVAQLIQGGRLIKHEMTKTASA
UniProt O96033: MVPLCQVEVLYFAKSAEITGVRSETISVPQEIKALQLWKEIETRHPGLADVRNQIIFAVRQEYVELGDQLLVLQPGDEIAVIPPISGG
UniProt Q9NPA3, whole entry, looked up: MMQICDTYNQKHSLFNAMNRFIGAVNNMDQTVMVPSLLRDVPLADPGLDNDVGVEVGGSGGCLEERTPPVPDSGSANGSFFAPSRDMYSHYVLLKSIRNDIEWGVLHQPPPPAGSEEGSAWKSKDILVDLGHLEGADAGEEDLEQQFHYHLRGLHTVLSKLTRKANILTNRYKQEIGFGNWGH
UniProt Q13015: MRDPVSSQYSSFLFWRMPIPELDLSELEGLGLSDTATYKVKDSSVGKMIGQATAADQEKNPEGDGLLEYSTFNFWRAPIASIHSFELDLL
UniProt Q9UI43: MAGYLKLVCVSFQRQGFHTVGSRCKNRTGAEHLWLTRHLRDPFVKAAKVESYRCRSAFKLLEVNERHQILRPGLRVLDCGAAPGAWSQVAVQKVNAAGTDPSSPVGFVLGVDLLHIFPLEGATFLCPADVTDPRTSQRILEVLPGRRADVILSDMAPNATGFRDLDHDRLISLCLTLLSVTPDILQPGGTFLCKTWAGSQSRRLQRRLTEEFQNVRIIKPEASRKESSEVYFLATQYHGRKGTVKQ
UniProt Q86TA1: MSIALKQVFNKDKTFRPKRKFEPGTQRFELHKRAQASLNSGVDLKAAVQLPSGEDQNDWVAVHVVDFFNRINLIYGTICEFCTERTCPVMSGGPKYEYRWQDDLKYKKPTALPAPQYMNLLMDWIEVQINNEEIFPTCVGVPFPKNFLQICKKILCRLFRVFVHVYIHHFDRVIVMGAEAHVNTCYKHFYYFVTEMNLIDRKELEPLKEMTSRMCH
UniProt Q86VX9: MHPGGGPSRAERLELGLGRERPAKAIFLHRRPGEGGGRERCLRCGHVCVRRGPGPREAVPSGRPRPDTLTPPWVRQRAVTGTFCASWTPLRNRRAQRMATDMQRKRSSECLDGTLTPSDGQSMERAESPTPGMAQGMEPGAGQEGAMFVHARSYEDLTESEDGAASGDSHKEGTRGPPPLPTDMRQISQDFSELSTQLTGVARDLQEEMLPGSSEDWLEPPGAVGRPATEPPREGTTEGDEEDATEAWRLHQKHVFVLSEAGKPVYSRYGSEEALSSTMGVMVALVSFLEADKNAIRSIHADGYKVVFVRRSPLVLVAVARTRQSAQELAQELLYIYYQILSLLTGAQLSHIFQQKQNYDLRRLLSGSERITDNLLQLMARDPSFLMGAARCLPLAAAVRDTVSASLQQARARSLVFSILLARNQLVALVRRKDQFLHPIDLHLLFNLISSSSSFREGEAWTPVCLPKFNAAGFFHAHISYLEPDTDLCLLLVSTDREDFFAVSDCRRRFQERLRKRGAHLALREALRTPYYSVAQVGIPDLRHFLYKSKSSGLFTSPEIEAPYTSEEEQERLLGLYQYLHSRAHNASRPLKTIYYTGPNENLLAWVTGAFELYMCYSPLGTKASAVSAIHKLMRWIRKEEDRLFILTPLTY
UniProt Q9BU76: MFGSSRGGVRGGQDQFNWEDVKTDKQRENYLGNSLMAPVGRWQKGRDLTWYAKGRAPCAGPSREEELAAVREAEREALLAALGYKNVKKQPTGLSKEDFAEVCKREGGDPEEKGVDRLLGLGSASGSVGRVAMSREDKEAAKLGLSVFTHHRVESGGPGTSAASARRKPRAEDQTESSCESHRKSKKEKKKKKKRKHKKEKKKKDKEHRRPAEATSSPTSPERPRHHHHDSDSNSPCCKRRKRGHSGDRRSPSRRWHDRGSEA
UniProt P55197: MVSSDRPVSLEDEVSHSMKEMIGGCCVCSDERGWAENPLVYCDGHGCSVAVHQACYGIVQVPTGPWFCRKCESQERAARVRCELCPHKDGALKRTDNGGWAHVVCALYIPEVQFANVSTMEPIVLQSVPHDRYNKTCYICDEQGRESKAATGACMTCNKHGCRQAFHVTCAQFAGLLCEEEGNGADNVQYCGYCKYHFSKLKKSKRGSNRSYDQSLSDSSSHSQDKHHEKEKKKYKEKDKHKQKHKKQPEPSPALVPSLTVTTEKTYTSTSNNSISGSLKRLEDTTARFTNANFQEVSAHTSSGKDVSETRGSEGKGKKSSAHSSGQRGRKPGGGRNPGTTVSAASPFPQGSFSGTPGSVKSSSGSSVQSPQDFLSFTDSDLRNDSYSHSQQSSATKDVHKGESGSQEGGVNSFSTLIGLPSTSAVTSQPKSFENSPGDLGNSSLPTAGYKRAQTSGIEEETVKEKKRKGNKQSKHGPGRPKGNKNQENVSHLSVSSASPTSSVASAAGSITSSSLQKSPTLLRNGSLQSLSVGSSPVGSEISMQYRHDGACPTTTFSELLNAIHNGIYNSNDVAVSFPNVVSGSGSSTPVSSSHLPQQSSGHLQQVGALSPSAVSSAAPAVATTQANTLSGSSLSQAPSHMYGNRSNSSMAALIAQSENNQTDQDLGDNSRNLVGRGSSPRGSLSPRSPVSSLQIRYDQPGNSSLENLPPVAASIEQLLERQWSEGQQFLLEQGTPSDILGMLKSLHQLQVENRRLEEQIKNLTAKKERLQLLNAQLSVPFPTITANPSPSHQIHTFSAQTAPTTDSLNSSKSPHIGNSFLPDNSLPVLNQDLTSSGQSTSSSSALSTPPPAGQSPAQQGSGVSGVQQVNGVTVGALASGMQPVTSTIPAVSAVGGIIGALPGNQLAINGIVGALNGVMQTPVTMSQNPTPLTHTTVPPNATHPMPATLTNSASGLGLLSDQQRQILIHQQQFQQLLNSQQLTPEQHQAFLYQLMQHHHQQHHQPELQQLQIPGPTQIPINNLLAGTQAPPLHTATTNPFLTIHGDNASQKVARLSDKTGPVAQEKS

Compound: C1CN(CCC1(CC2=CC=C(C=C2)Cl)N)C3=NC=NC4=C3C=CN4
Experiment: log2 fold change, soluble protein after heating vs DMSO (PISA); higher = thermal stabilisation; K562 cells, 10 uM, 30 min; active = over 0.2 and 3.5 SD of the protein, either way, in both replicates (recomputed)
In short: (§1)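 For each measurement, 10 μM compound was applied for 30 min to K562 cells at 2×10^6 cells/mL. Aliquots were heated for 3 min across 48°C-58°C, pooled, and extracted in PBS with 0.5% NP-40 at 4°C; the supernatant after 21,000xg for 90 min was soluble protein. This was quantified by TMTpro 16plex LC-MS/MS with channel sums equalised, and thermal stability was reported relative to control samples from duplicates, on a log2 fold-change scale.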

log2 fold change, inactive:
MINDY2 (UniProt Q8NBR6) -0.014
MKRN1 (UniProt Q9UHC7) -0.278
MPHOSPH8 isoform 2 (UniProt Q99549) -0.065
MICAL2 (UniProt O94851) 0.106
MOB3A (UniProt Q96BX8) 0.011
MMADHC (UniProt Q9H3L0) 0.083
MICALL1 (UniProt Q8N3F8) 0.066
MNT (UniProt Q99583) -0.136
MKRN3 (UniProt Q13064) 0.118
MRPL42 (UniProt Q9Y6G3) -0.074
MRFAP1 (UniProt Q9Y605) -0.106
MPC1 (UniProt Q9Y5U8) 0.083
MRPL18 (UniProt Q9H0U6) -0.161
MOCS2 (UniProt O96033) 0.022
MID1IP1 (UniProt Q9NPA3) -0.06
MOB2 isoform 3 (UniProt Q70IA6) -0.22
MPZL1 isoform 3 (UniProt O95297) 0.019
MLLT11 (UniProt Q13015) -0.3
MRM2 (UniProt Q9UI43) -0.002
MOB3B (UniProt Q86TA1) 0.059
MON1A (UniProt Q86VX9) 0.135
MICA (UniProt Q29983) 0.055
MMTAG2 (UniProt Q9BU76) -0.059
MLH1 (UniProt P40692) 0.039
MRNIP (UniProt Q6NTE8) 0.185
MLKL (UniProt Q8NB16) 0.03
MKKS (UniProt Q9HB66) -0.019

Compound: C1COCCN1CCN2C3=CC=CC=C3N=C2NC(=O)C4=CC(=CC=C4)[N+](=O)[O-] [IRAK-1-4 Inhibitor I]
Experiment: as above
In short: as §1

log2 fold change, inactive:
MKRN1 (UniProt Q9UHC7) -0.202
MPHOSPH8 isoform 2 (UniProt Q99549) -0.149
MICAL2 (UniProt O94851) -0.066
MOB3A (UniProt Q96BX8) 0.062
MMADHC (UniProt Q9H3L0) 0.014
MICALL1 (UniProt Q8N3F8) 0.006
MNT (UniProt Q99583) 0.049
MKRN3 (UniProt Q13064) 0.052
MRPL42 (UniProt Q9Y6G3) -0.073
MRFAP1 (UniProt Q9Y605) 0.218
MRPL18 (UniProt Q9H0U6) -0.182
MID1IP1 (UniProt Q9NPA3) -0.134
MLLT11 (UniProt Q13015) 0.173
MOB3B (UniProt Q86TA1) -0.26
MRAS (UniProt O14807) 0.084
MORC2 (UniProt Q9Y6X9) -0.292
MON1A (UniProt Q86VX9) -0.005
MR1 (UniProt Q95460) 0.051
MMTAG2 (UniProt Q9BU76) -0.097
MRNIP (UniProt Q6NTE8) 0.123
MLKL (UniProt Q8NB16) 0.009
MITF (UniProt O75030) 0.166
MICAL1 isoform 4 (UniProt Q8TDZ2) -0.111

Compound: C=CC(=O)N1CCC[C@@H](n2nc(-c3ccc(Oc4ccccc4)cc3)c3c(N)ncnc32)C1 [ibrutinib]
Experiment: as above
In short: as §1

log2 fold change, inactive:
MKRN1 (UniProt Q9UHC7) 0.09
MLLT10 (UniProt P55197) 0.107
MICAL2 (UniProt O94851) -0.01
MOB3A (UniProt Q96BX8) -0.011
MMADHC (UniProt Q9H3L0) -0.056
MNT (UniProt Q99583) -0.032
MRPL42 (UniProt Q9Y6G3) 0.143
MRFAP1 (UniProt Q9Y605) -0.017
MPC1 (UniProt Q9Y5U8) 0.36
MRPL18 (UniProt Q9H0U6) 0.021
MID1IP1 (UniProt Q9NPA3) -0.007
MOB2 isoform 3 (UniProt Q70IA6) -0.061
MLLT11 (UniProt Q13015) -0.068
MOB3B (UniProt Q86TA1) -0.001
MRAS (UniProt O14807) 0.053
MORC2 (UniProt Q9Y6X9) 0.042
MON1A (UniProt Q86VX9) 0.231
MICA (UniProt Q29983) 0.075
MME (UniProt P08473) -0.076
MMTAG2 (UniProt Q9BU76) 0.066
MLH1 (UniProt P40692) -0.018
MKKS (UniProt Q9HB66) 0.009
